Laboratory results from paper PMC11674061.
Results are given in words; binding and its absence hold for the method and conditions named. In cells and extracts the contact can be indirect. Some results given as binding are weak or reduced against the parent protein; the word gives no strength.

Protein sequences, listed by entry. Tags and fused reporters are not part of them. Lines headed by an entry give the natural chain unless they say otherwise; changes in a name come on top. Chains listed by the source or under a name are the forms on record and can include a tag or linker.
UniProt P34152: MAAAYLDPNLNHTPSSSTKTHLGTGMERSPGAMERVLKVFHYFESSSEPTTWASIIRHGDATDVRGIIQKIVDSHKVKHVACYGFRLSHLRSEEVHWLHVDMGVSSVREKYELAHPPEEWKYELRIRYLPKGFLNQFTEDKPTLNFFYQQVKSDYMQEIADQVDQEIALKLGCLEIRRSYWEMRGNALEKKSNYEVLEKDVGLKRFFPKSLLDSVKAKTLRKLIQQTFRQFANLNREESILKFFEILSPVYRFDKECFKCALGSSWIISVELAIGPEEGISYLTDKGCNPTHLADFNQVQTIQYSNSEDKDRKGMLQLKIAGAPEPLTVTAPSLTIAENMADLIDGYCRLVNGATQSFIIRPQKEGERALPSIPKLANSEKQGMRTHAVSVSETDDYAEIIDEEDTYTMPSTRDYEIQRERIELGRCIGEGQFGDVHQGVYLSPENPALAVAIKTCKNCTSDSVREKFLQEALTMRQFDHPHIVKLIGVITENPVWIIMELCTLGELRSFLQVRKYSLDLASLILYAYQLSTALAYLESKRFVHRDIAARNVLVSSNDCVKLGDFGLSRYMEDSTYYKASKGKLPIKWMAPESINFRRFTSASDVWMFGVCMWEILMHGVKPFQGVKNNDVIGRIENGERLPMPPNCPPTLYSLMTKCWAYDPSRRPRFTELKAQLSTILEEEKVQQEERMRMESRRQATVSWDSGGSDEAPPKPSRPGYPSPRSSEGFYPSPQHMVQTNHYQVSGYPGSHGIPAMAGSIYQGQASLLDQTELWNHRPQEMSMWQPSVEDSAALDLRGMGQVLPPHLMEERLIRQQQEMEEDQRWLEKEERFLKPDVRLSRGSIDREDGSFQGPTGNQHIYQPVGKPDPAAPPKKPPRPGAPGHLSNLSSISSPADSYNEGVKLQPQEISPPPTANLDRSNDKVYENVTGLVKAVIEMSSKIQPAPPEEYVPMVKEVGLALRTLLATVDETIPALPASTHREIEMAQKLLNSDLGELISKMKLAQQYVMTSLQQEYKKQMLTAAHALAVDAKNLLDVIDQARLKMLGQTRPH
GFP-tagged mouse FAK mutant with Ser708, Thr739 and Ser886 replaced with Ala (P34152, form named): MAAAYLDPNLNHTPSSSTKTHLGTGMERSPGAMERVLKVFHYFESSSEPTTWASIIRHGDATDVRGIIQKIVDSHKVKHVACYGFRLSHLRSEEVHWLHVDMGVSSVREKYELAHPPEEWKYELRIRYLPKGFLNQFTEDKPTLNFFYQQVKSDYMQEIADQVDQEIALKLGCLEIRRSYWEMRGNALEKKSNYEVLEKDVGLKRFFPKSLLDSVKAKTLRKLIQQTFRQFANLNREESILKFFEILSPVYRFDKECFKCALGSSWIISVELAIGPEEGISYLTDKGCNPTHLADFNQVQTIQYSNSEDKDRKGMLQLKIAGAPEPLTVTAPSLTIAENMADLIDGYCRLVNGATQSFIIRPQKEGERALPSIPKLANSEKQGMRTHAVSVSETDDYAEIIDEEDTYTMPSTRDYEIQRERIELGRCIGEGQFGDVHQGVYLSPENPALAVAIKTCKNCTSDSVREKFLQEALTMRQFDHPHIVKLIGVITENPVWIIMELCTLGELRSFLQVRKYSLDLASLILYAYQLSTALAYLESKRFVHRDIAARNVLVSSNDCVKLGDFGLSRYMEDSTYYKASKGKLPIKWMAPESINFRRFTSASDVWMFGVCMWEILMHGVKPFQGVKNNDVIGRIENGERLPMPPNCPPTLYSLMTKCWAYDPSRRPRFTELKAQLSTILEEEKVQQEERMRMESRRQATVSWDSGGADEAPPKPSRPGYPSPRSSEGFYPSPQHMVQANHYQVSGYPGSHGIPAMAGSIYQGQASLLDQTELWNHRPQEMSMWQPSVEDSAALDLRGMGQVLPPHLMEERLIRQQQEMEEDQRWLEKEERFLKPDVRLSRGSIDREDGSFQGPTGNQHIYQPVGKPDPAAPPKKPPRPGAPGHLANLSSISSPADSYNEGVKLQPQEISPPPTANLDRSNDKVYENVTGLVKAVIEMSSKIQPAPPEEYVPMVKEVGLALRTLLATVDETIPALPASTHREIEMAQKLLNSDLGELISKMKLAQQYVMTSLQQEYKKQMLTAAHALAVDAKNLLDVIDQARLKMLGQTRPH
UniProt P49023: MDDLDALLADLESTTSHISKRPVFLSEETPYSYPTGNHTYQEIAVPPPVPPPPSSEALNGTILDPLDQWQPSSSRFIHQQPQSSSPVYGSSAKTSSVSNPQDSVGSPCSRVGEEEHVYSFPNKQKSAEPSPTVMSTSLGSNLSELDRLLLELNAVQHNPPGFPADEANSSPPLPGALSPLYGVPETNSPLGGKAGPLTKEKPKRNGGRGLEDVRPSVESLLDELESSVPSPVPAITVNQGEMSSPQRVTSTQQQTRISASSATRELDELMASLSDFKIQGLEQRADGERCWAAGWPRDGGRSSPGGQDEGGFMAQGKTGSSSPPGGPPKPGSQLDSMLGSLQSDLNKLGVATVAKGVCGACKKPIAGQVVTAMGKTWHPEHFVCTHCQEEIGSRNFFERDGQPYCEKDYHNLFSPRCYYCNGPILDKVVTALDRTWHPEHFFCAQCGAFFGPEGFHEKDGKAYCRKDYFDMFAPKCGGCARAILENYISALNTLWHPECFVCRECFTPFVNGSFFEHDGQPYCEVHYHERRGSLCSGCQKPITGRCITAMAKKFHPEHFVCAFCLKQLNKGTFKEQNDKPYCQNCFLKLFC

Target: GFP-tagged mouse FAK mutant with Ser708, Thr739 and Ser886 replaced with Ala (mouse) (UniProt P34152)
Test: co-IP; lysates of 293T FAK-KO cells transfected with GFP-tagged WT or MUT FAK (20 mM Tris-HCl pH 7.4, 150 mM NaCl, 0.1% Triton X-100) incubated with anti-GFP magnetic beads at 4 °C for 2 h; immunoprecipitates blotted with anti-paxillin and anti-talin

binding: binds
Substance: paxillin (from UniProt P49023 1-591)
